No constants are given. Whether binding was seen depends on the method and setting. Some binding calls cover weakened binding; strength is not graded here.

Sequences of proteins named here, by UniProt entry; tags and fusion partners are left off. Residues count along the entry.
UniProt P05067, residues 672-713: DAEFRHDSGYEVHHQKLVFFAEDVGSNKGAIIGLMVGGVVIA

The target in test [1] is recombinant Aβ1-42 fibrils (human). Nature of the test: competition ELISA on plate-coated Aβ42 fibrils; unlabelled antibody titrated against biotinylated hBP (labelled competitor). For orientation: ELISA stands for enzyme-linked immunosorbent assay.
The target of a further test is Aβ1-28 (human). The test is described as follows: SPR (BIAcore), antibody captured by anti-human Fc, Aβ1-28 as analyte. On the technique in general: SPR reads the build-up and loss of mass on a sensor chip optically.
Test [2] addresses Aβ pathology (plaques) in frozen human AD brain sections (human) (UniProt P05067). Nature of the test: IHC on frozen AD brain AD 13-75 (FIG. 13); the weaker binder.
For test [3] the target is unchanged. The test is described as follows: immunohistochemistry on frozen human AD brain sections (brain AD 13-75 by the legend).
The target is the same in test [4]. Nature of the test: IHC on frozen AD brain AD 13-75, 0.03-9 µg/ml; the weaker binder.

B1: h2927 (antibody, V domains shown)
VH: EVQLLESGGGLVQPGGSLRLSCAASGFTFSNFGMSWVRQAPGKGLEWVASVRSGSGRTYYSDNVKGRFTISRDNSKNTLYLQMNSLRAEDTAVYYCVRYDHYTGTSDYWGQGTLVTVSS
VL: DVVMTQSPLSLPVTPGEPASISCKSSQSLLDYDGKTYLNWLLQKPGQSPQRLIYKVSNRDSGVPDRFSGSGSGTDFTLKISRVEAEDVGVYYCWQGTHFPRSFGQGTKVEIK
With B1, the binding result in test [1] was “binds”.

B2: h2929 (antibody, V domains shown)
VH: EVQLLESGGGLVQPGGSLRLSCAASGFTFSNFGMSWVRQAPGKGLEWVASVRSGSGRTYYSDNVKGRFTISRDNSKNTLYLQMNSLRAEDTAVYYCVRYDHYTGTSDYWGQGTLVTVSS
VL: DVVMTQSPLSLPVTPGEPASISCRSSQSLVDYDGKTYLNWLLQRPGQSPQRLIYKVSNRDSGVPDRFSGSGSGTDFTLKISRVEAEDVGVYYCWQGSHFPRSYGQGTKVEIK
With B2, in test [1], the binding result is listed as “binds”.

B3: h49k3G (antibody, V domains shown)
VH: EVQLLESGGGLVQPGGSLRLSCAASGFTFSNFGMSWVRQAPGKGLEWVASVRSGGGRTYYSDNVKGRFTISRDNSKNTLYLQMNSLRAEDTAVYYCVRYDHYSGTSDYWGQGTLVTVSS
VL: DVVMTQSPLSLPVTLGEPASISCKSSQSLLDSDGKTYLNWLLQKPGQSPQRLIYKVSNRDSGVPDRFSGSGSGTDFTLKISRVEAEDVGVYYCWQGTHFPRTFGQGTKVEIK
Consider B3, for which, in test [1], the binding result was “binds”.

B4: h2831 (antibody, V domains shown)
VH: EVQLLESGGGLVQPGGSLRLSCAASGFTFSNFGMSWVRQAPGKGLEWVASVRSGSGRTYYSDNVKGRFTISRDNSKNTLYLQMNSLRAEDTAVYYCVRYDHYSGTSDYWGQGTLVTVSS
VL: DVVMTQSPLSLPVTLGEPASISCKSSQSLLDYDGKTYLNWLLQKPGQSPQRLIYRVTNRDTGVPDRFSGSGSGTDFTLKISRVEAEDVGVYYCWQGTHFPRSFGQGTKVEIK
On to B4, for which the binding entry with Aβ1-28 (human) is recorded as “binds”.

B5: h2826 (antibody, V domains shown)
VH: EVQLLESGGGLVQPGGSLRLSCAASGFTFSNFGMSWVRQAPGKGLEWVASVRSGSGRTYYSDNVKGRFTISRDNSKNTLYLQMNSLRAEDTAVYYCVRYDHYSGTSDYWGQGTLVTVSS
VL: DVVMTQSPLSLPVTPGEPASISCKSSQSLLDYDGKTYLNWLLQKPGQSPQRLIYKVSNRDSGVPDRFSGSGSGTDFTLKISRVEAEDVGVYYCWQGTHFPRTFGQGTKVEIK
In the case of B5, the binding result in test [1] is “binds”.

B6: h2926 (antibody, V domains shown)
VH: EVQLLESGGGLVQPGGSLRLSCAASGFTFSNFGMSWVRQAPGKGLEWVASVRSGSGRTYYSDNVKGRFTISRDNSKNTLYLQMNSLRAEDTAVYYCVRYDHYTGTSDYWGQGTLVTVSS
VL: DVVMTQSPLSLPVTPGEPASISCKSSQSLLDYDGKTYLNWLLQKPGQSPQRLIYKVSNRDSGVPDRFSGSGSGTDFTLKISRVEAEDVGVYYCWQGTHFPRTFGQGTKVEIK
As to B6, the binding result in test [1] is given as “binds”.

B7: h2931 (antibody, V domains shown)
VH: EVQLLESGGGLVQPGGSLRLSCAASGFTFSNFGMSWVRQAPGKGLEWVASVRSGSGRTYYSDNVKGRFTISRDNSKNTLYLQMNSLRAEDTAVYYCVRYDHYTGTSDYWGQGTLVTVSS
VL: DVVMTQSPLSLPVTLGEPASISCKSSQSLLDYDGKTYLNWLLQKPGQSPQRLIYRVTNRDTGVPDRFSGSGSGTDFTLKISRVEAEDVGVYYCWQGTHFPRSFGQGTKVEIK
With B7, the binding result with Aβ1-28 (human) was “binds”.

B8: BAN2401 (antibody, human IgG1, kappa, V domains shown)
VH: QVELVESGGGLVQPGGSLRLSCAASGFTFSSYAMSWVRQAPGKGLEWVSAINASGTRTYYADSVKGRFTISRDNSKNTLYLQMNSLRAEDTAVYYCARGKGNTHKPYGYVRYFDVWGQGTLVTVSS
VL: DIVLTQSPATLSLSPGERATLSCRASQSVSSSYLAWYQQKPGQAPRLLIYGASSRATGVPARFSGSGSGTDFTLTISSLEPEDFATYYCLQIYNMPITFGQGTKVEIKR
As for B8, the binding entry in test [2], in test [3] and in test [4] was “binds” throughout.

Values taken from US20260226143A1.
